Experimental data published in PMC5543139.
The exact form of at least one protein or probe is not confirmed. Results from cells or extracts need not show a direct contact. For some assays here: At least one verdict rests on a figure or table, not on a statement of the authors.

Chains of the proteins cited; added tags and fusions are not shown. A line that says so, or that is headed by a name, gives the form on record, which may keep a tag or linker. Residues count along the entry.
UniProt P47871, 26-477: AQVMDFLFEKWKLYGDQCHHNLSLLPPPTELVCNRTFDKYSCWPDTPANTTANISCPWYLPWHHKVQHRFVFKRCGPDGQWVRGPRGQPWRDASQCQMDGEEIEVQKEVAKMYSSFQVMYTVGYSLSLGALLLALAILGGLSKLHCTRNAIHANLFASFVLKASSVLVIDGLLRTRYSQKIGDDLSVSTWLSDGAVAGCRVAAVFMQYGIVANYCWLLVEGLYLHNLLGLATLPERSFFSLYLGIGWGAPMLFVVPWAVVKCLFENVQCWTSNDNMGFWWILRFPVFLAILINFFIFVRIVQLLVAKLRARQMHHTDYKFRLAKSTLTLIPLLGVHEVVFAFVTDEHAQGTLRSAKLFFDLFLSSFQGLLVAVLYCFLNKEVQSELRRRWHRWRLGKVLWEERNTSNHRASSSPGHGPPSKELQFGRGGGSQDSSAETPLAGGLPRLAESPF
glucagon receptor on CHO-GCGR cells (human), one chain, as listed by the source: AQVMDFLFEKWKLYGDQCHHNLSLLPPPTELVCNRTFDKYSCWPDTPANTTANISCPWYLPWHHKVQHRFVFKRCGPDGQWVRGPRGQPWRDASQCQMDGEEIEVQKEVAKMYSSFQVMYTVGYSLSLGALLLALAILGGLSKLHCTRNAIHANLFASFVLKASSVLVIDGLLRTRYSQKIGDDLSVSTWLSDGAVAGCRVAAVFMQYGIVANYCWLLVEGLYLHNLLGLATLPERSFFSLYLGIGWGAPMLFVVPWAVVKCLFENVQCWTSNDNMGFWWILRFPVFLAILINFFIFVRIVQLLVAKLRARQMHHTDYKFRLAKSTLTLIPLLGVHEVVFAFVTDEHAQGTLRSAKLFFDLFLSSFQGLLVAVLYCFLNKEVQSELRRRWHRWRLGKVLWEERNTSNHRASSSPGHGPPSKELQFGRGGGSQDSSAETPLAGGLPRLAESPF

Experiments:
[1] = test system: glucagon receptor on CHO-GCGR cells (human); assay: flow cytometry on live cells; settings: D-PBS pH 7.4, 5 mM MgCl2, 4.5 g/L glucose, 0.1 mg/mL yeast tRNA, 1 mg/L BSA, 1 h (45 min in Results for Kd), protein on the cell surface, single-stranded DNA
[2] = target: endogenous glucagon receptor on HepG2 cells (UniProt P47871); assay: flow cytometry on live cells; settings: 250 nM, 4 C, binding scarce after gcgr siRNA, D-PBS pH 7.4, 5 mM MgCl2, 4.5 g/L glucose, 0.1 mg/mL yeast tRNA, 1 mg/L BSA, 1 h (45 min in Results for Kd), protein on the cell surface, label: FAM (flow cytometry), biotin (pull-down), single-stranded DNA
[3] = target: glucagon receptor from CHO-GCGR membrane lysate (human) (UniProt P47871); assay: biotin-aptamer pull-down, western blot; settings: 4 C overnight, salmon sperm DNA, library and beads alone gave no band, D-PBS pH 7.4, 5 mM MgCl2, 4.5 g/L glucose, 0.1 mg/mL yeast tRNA, 1 mg/L BSA, 1 h (45 min in Results for Kd), protein in a lysate after overexpression, label: FAM (flow cytometry), single-stranded DNA
[4] = affinity differs between truncations, no binding to Mock cells, 4 C

## ATAAGTAGGTATCCGTTTGAAAAACTTTTCTGACCGTCCGACTATGGA [GR-3e]
[1]; [4]
  binding result: binds

## ATCCAGAGTGACGCAGCAGATAAGTAGGTATCCGTTTGAAAAACTTTTCTGACCGTCCGACTATGGA [GR-3a]
[1]; [4]
  binding result: binds

## ATCCAGAGTGACGCAGCAGATAAGTAGGTATCCGTTTGAAAAACTTTTCTGACCGTCCGACTATGGACACGGTGGCTTAGT [GR-3]
[1]; 37 C, signal almost the same as at 4 C, label: FAM (flow cytometry), biotin (pull-down)
  binding result: binds
[2]
  binding result: binds
[3]
  binding result: binds

## GACGCAGCAGATAAGTAGGTATCCGTTTGAAAAACTTTTCTGACCGTCCGACTATGGAC [GR-3c]
[1]; [4]
  binding result: binds

## GCAGCAGATAAGTAGGTATCCGTTTGAAAAACTTTTCTGACCGTCCGACTATGGA [GR-3d]
[1]; affinity close to full-length GR-3, no binding to Mock cells, 4 C
  binding result: binds

## GCAGCAGATAAGTAGGTATCCGTTTGAAAAACTTTTCTGACCGTCCGACTATGGACACGGTGGCTTAGT [GR-3b]
[1]; [4]
  binding result: binds
